Values joined by “and” are separate entries in the source; they are usually repeats but may differ in a detail not shown here. Equal entries are not always repeated. Toxic doses and inconclusive results are not listed. The calls were made as follows: active = survival T/C of 150% or more; inactive = T/C below 125% in these data.
Test system: CD2F1 mice, L1210 leukemia sc, survival T/C
Experiment: NCI In Vivo Anticancer Drug Screen. Data for tumor model L1210 Leukemia (subcutaneous) in CD2F1 (CDF1) mice
Details: endpoint: median survival time, higher = longer survival
Description: The antitumor activity of compounds was measured in mice bearing transplantable tumors. Survival or tumor size were measured and the results are expressed as the measurement made in the treated group (T) divided by the measurement made in the vehicle treated control group (C). The tumor model used in this assay is L1210 Leukemia (subcutaneous) in CD2F1 (CDF1) mice

Measured: T/C

COc1cc2c(c(OC)c1OC)-c1ccc(OC)c(=O)cc1[C@@H](N)CC2
inactive: dose: 0.62 mg/kg/injection, schedule: Q01DX009 (ip), vehicle: saline with Tween-80 = 100 % of control | dose: 0.62 mg/kg/injection, schedule: Q01DX009 (sc), vehicle: saline with Tween-80 = 103 % of control | dose: 0.62 mg/kg/injection, schedule: Q01DX009 (sc), vehicle: saline 106 % of control | dose: 1.25 mg/kg/injection, schedule: Q01DX009 (ip), vehicle: saline with Tween-80 = 105 % of control | dose: 1.25 mg/kg/injection, schedule: Q01DX009 (sc), vehicle: saline with Tween-80 = 108 % of control | dose: 1.25 mg/kg/injection, schedule: Q01DX009 (sc), vehicle: saline 116 % of control | dose: 2.5 mg/kg/injection, schedule: Q01DX009 (ip), vehicle: saline with Tween-80 = 110 % of control | dose: 2.5 mg/kg/injection, schedule: Q01DX009 (ip), vehicle: saline 120 % of control | dose: 2.5 mg/kg/injection, schedule: Q01DX009 (sc), vehicle: saline with Tween-80 = 123 % of control | dose: 2.5 mg/kg/injection, schedule: Q01DX009 (sc), vehicle: saline 118 % of control and 124 % of control | dose: 3.3 mg/kg/injection, schedule: Q01DX009 (sc), vehicle: saline 114 % of control | dose: 3.8 mg/kg/injection, schedule: Q01DX009 (sc), vehicle: saline 121 % of control | dose: 5.0 mg/kg/injection, schedule: Q01DX009 (sc), vehicle: saline 111 % of control | dose: 7.5 mg/kg/injection, schedule: Q01DX009 (ip), vehicle: saline 102 % of control | dose: 7.5 mg/kg/injection, schedule: Q01DX009 (sc), vehicle: saline 92 % of control | dose: 10.0 mg/kg/injection, schedule: Q01DX009 (ip), vehicle: saline 90 % of control | dose: 10.0 mg/kg/injection, schedule: Q01DX009 (sc), vehicle: saline 123 % of control | dose: 15.0 mg/kg/injection, schedule: Q01DX009 (sc), vehicle: saline 104 % of control | dose: 20.0 mg/kg/injection, schedule: Q01DX009 (ip), vehicle: saline with Tween-80 = 96 % of control | dose: 20.0 mg/kg/injection, schedule: Q01DX009 (sc), vehicle: saline 122 % of control | dose: 40.0 mg/kg/injection, schedule: Q01DX009 (sc), vehicle: saline 104 % of control

COc1c(O)cc2c(c1OC)-c1ccc(SC)c(=O)cc1C(NC(C)=O)CC2 (stereo unspecified)
inactive: dose: 0.31 mg/kg/injection, schedule: Q01DX009 (ip), vehicle: DMSO 110 % of control | dose: 0.63 mg/kg/injection, schedule: Q01DX009 (ip), vehicle: DMSO 110 % of control | dose: 1.25 mg/kg/injection, schedule: Q01DX009 (ip), vehicle: DMSO 111 % of control | dose: 2.5 mg/kg/injection, schedule: Q01DX009 (ip), vehicle: DMSO 106 % of control | dose: 5.0 mg/kg/injection, schedule: Q01DX009 (ip), vehicle: DMSO 104 % of control

— PubChem BioAssay AID258 (DTP/NCI, 2004)
